SMILES strings stand for the structures. The list shows only some results of the screen, not a fair sample: it gathers tests that were run many times, whatever their T/C, doses with no T/C, and many T/C values between a quarter and a half above the control. Other doses and runs of a compound stand elsewhere. T/C is the treated group as % of the vehicle group. Some doses have a count of surviving animals in place of a T/C: the source holds a T/C of zero for them, seemingly a mark for toxic or unscored doses. Some doses without a T/C left all or most animals alive at the check, yet need not have been tolerated: the source hardly ever lists a survival T/C far under the control, and the zero likely stands for such cases as well. Counts of survivors are from the toxicity check (mostly the fifth day) where no day follows; animals may have died later. Schedules are NCI's codes, read here as Q, the interval in days (D) or hours (H), X, the number of doses.

Results on 18 compounds are retold here after PubChem BioAssay AID256 (DTP/NCI, 2004).

The subject of this assay is CD2F1 mice, L1210 leukemia ip, survival T/C. The assay can be described thus: NCI In Vivo Anticancer Drug Screen. Data for tumor model L1210 Leukemia (intraperitoneal) in CD2F1 (CDF1) mice. The settings on record: higher T/C = longer survival. A digest of the protocol: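 In this screen, transplantable tumors were grown in mice given either the compound or its vehicle. Results were expressed as the treated measurement relative to the control measurement.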

The mark [1] stands for this setting: T/C endpoint: mean survival time, dose: 100.0 mg/kg/injection, schedule: Q04DX002 (ip), vehicle: saline with Tween-80.
Setting [2] is: T/C endpoint: mean survival time, dose: 400.0 mg/kg/injection, schedule: Q04DX003 (ip), vehicle: saline.
The mark [3] stands for this setting: T/C endpoint: mean survival time, dose: 200.0 mg/kg/injection, schedule: Q01DX009 (ip), vehicle: saline with Tween-80.

In the case of `N/C(CCSc1ccccc1N=Cc1ccccc1O)=N/O`, the survivor count (T/C endpoint: mean survival time, dose: 100.0 mg/kg/injection, schedule: Q01DX009 (ip), vehicle: olive oil, sesame oil, peanut oil) is 4 of 6. Consider `CC1(C)C2CCC(CN=C(N)CSS(=O)(=O)O)C1C2` (stereo not given), for which the survivor count runs as follows: under setting [1], 0 of 3; (T/C endpoint: mean survival time, dose: 200.0 mg/kg/injection, schedule: Q04DX002 (ip), vehicle: saline with Tween-80) 0 of 3; (T/C endpoint: mean survival time, dose: 400.0 mg/kg/injection, schedule: Q04DX002 (ip), vehicle: saline with Tween-80) 0 of 3. As to `O=C(O)c1cc(-c2ccc(Cl)cc2)nc2c1ccc1ccccc12`, where the note is “T/C endpoint: mean survival time, dose: 400.0 mg/kg/injection, schedule: Q01DX001 (ip), vehicle: saline”, the survivor count was 1 of 6.

For `NCC[Se][Se]CCN`, under “T/C endpoint: median survival time, dose: 12.5 mg/kg/injection, schedule: Q01DX009 (ip), vehicle: suspension in saline”, the survivor count is listed as 2 of 6. For `OCCOc1ccc2ccccc2c1-c1c(OCCOc2ccc3ccccc3c2-c2c(OCCO)ccc3ccccc23)ccc2ccccc12`, the survivor count is, setting by setting: (T/C endpoint: mean survival time, dose: 100.0 mg/kg/injection, schedule: Q01DX001 (ip), vehicle: saline with Tween-80) 3 of 3; (T/C endpoint: mean survival time, dose: 200.0 mg/kg/injection, schedule: Q01DX001 (ip), vehicle: saline with Tween-80) 3 of 3. As to `Cc1ccc(C2=CSc3ccccc3N2)cc1`, the survivor count (T/C endpoint: mean survival time, dose: 400.0 mg/kg/injection, schedule: Q04DX002 (ip), vehicle: other) is reported as 1 of 3. Consider `COc1cc([N+](=O)[O-])c(C)[n+]([O-])n1`, for which the survivor count under setting [1] is 0 of 3. For the compound `CCCCCCCCCCCCCCCC(=O)NCC[N+](C)(CC)CC`, the survivor count (T/C endpoint: mean survival time, dose: 150.0 mg/kg/injection, schedule: Q01DX001 (ip), vehicle: saline) is on record as 0 of 6 and the survivor count (T/C endpoint: mean survival time, dose: 300.0 mg/kg/injection, schedule: Q01DX001 (ip), vehicle: saline) is listed as 0 of 6. In the case of `CC(C)C(NC(=O)C(CCCN=C(N)N)NC(=O)C(N)CCCCN)C(N)=O` (stereo not given), the survivor count (T/C endpoint: mean survival time, dose: 400.0 mg/kg/injection, schedule: Q01DX009 (ip), vehicle: water) is given as 0 of 6.

Consider `COc1ccc2c(c1OC)C1C3CC=CC3C2C2=[N+]1CCc1cc3c(cc12)OCO3` (stereo not given), for which the survivor count by setting is: (T/C endpoint: mean survival time, dose: 50.0 mg/kg/injection, schedule: Q04DX003 (ip), vehicle: saline) 5 of 6; (T/C endpoint: mean survival time, dose: 200.0 mg/kg/injection, schedule: Q04DX003 (ip), vehicle: saline) 0 of 6; under setting [2], 0 of 6. Turning to `Cc1c(C)c(C)c(CCl)c(C)c1C`, under setting [3], the survivor count is 0 of 3.

Turning to `ClC1C2c3ccccc3C(C1Cl)[n+]1ccccc12` (stereo not given), for the setting “T/C endpoint: mean survival time, dose: 50.0 mg/kg/injection, schedule: Q04DX003 (ip), vehicle: Klucel (hydroxypropylcellulose) (HPC)”, the survivor count was 6 of 6.

Consider `C=CCNc1ncnc2c1cnn2C`, for which the survivor count under setting [2] is 3 of 6. Consider `N#CSc1ccc2c(ccn2C2OCC(O)C(O)C2O)c1` (stereo not given), for which the survivor count runs as follows: (T/C endpoint: mean survival time, dose: 100.0 mg/kg/injection, schedule: Q01DX005 (ip), vehicle: other) 1 of 3; (T/C endpoint: mean survival time, dose: 200.0 mg/kg/injection, schedule: Q01DX005 (ip), vehicle: other) 0 of 3.

As for `CCCCC(CCCC)CS(=O)[O-].[C-]#[O+].[C-]#[O+].[Fe+6].[c-]1[c-][c-][cH-][c-]1`, the survivor count was 1 of 3 (T/C endpoint: mean survival time, dose: 100.0 mg/kg/injection, schedule: Q04DX002 (ip), vehicle: saline); 0 of 3 (T/C endpoint: mean survival time, dose: 200.0 mg/kg/injection, schedule: Q04DX002 (ip), vehicle: saline); 0 of 3 (T/C endpoint: mean survival time, dose: 400.0 mg/kg/injection, schedule: Q04DX002 (ip), vehicle: saline). For the compound `CCCOC(=O)c1cc([N+](=O)[O-])cc([N+](=O)[O-])c1Sc1ncnc2nc[nH]c12`, the survivor count (T/C endpoint: mean survival time, dose: 80.0 mg/kg/injection, schedule: Q01DX005 (ip), vehicle: other) is recorded as 1 of 3. Regarding `CC(=O)Nc1ccc2c(c1)C(P(=O)(OC(C)C)OC(C)C)c1ccccc1-2` (stereo not given), the survivor count was 6 of 6 (T/C endpoint: mean survival time, dose: 100.0 mg/kg/injection, schedule: Q01DX009 (ip), vehicle: saline with Tween-80); 6 of 6 under setting [3]; 6 of 6 (T/C endpoint: mean survival time, dose: 400.0 mg/kg/injection, schedule: Q01DX009 (ip), vehicle: saline with Tween-80). On to `COc1ccc2c[n+](C)c3c4cc(OC)c(OC)cc4ccc3c2c1`, for which the survivor count by setting is: (T/C endpoint: mean survival time, dose: 50.0 mg/kg/injection, schedule: Q04DX003 (ip), vehicle: saline with Tween-80) 1 of 3; (T/C endpoint: mean survival time, dose: 100.0 mg/kg/injection, schedule: Q04DX003 (ip), vehicle: saline with Tween-80) 1 of 3.
